In the supplement of paper PMC10849652 one finds log2 fold change data, which are given here for 40 targets.

Sequences of proteins named here, by UniProt entry; tags and fusion partners are left off. A change or cut given only in a name is not applied to a line headed by its entry.
UniProt Q9Y5U2: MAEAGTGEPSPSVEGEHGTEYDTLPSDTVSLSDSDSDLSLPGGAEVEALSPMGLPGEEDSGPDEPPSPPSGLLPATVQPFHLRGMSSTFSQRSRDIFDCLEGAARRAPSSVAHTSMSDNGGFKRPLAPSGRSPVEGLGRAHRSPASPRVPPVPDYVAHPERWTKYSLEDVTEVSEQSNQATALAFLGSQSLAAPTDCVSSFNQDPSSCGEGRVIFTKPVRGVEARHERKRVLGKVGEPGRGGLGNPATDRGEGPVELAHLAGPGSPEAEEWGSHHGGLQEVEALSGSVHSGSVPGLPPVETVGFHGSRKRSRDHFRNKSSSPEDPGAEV
UniProt Q53H54: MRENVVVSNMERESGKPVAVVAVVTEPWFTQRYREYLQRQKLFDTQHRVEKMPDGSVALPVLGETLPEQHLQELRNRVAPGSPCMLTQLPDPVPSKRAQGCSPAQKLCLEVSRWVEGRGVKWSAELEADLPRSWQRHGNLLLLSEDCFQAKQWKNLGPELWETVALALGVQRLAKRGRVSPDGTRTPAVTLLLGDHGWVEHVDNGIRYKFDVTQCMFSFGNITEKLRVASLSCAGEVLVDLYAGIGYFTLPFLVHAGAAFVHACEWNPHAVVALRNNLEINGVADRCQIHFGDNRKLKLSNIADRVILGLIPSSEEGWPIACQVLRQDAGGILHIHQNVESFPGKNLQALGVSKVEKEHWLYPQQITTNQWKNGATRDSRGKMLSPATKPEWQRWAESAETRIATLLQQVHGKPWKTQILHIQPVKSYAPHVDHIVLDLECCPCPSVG
UniProt Q86SZ2: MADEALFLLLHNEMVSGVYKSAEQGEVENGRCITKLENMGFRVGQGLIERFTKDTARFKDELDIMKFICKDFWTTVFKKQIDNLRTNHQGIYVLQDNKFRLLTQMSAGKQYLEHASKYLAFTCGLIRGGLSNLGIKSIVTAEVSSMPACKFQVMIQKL
UniProt Q86TV6: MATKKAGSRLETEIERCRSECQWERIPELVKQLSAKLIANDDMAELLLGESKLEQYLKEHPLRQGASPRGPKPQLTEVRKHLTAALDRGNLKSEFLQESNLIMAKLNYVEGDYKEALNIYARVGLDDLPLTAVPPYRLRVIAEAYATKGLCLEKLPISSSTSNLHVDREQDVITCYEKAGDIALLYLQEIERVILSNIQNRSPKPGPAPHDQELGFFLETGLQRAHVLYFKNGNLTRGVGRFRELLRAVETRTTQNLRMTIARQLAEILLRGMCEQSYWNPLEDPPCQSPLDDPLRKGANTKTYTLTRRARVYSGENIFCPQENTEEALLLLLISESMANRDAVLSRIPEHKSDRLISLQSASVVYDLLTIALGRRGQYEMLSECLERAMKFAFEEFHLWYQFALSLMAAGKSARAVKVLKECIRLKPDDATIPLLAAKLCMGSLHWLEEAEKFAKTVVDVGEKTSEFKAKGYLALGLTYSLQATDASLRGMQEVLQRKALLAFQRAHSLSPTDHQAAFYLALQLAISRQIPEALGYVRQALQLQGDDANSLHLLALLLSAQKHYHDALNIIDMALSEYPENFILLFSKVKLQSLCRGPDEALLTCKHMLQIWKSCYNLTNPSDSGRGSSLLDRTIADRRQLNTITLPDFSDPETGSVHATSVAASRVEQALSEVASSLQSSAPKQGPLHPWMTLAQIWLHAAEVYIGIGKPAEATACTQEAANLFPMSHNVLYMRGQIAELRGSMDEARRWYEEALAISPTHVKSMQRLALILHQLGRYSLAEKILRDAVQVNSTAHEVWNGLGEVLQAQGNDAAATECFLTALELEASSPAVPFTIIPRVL
UniProt Q15714: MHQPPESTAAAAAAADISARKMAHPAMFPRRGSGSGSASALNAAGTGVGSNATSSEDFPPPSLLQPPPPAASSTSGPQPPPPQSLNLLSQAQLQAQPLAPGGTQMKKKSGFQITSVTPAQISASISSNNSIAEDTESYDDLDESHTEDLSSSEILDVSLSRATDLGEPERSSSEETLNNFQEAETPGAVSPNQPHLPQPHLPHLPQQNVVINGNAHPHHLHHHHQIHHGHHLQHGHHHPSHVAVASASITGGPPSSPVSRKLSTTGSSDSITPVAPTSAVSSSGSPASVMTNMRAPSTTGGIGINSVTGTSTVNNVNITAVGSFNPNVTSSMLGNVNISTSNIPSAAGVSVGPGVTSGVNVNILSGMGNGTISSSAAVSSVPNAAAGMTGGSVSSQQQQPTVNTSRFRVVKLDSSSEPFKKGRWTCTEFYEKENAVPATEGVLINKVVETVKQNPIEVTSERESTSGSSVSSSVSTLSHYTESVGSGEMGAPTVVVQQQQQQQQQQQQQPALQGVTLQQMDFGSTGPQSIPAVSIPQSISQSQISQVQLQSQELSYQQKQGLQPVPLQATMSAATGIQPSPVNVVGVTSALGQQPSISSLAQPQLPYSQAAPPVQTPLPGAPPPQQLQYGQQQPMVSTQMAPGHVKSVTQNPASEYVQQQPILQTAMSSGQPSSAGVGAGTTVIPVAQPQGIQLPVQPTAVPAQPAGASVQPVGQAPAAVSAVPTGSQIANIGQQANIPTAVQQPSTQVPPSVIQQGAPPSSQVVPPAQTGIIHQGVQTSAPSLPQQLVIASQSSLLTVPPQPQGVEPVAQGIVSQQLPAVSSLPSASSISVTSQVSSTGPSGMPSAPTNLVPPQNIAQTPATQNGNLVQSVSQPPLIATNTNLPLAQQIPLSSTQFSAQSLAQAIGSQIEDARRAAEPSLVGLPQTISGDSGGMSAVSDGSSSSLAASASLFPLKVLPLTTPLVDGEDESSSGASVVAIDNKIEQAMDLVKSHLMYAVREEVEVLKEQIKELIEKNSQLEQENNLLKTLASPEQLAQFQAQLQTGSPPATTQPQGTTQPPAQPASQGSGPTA
UniProt P43897: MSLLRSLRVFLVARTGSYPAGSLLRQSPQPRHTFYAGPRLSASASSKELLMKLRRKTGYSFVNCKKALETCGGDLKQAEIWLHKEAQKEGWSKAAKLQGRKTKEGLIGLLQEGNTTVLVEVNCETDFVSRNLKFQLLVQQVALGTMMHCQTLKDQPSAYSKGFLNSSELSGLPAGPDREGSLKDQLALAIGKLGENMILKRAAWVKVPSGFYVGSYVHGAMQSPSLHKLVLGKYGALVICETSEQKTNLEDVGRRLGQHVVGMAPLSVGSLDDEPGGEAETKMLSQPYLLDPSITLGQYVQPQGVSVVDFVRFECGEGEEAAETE
UniProt Q9NX07: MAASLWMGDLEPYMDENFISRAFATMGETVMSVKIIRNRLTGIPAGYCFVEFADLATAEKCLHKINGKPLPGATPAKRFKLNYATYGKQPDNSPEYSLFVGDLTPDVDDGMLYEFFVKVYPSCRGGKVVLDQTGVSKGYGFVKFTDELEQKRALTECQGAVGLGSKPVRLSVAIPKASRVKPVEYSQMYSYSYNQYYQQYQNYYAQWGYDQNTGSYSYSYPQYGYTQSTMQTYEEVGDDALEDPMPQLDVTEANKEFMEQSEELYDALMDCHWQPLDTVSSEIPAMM
UniProt Q9UJA5: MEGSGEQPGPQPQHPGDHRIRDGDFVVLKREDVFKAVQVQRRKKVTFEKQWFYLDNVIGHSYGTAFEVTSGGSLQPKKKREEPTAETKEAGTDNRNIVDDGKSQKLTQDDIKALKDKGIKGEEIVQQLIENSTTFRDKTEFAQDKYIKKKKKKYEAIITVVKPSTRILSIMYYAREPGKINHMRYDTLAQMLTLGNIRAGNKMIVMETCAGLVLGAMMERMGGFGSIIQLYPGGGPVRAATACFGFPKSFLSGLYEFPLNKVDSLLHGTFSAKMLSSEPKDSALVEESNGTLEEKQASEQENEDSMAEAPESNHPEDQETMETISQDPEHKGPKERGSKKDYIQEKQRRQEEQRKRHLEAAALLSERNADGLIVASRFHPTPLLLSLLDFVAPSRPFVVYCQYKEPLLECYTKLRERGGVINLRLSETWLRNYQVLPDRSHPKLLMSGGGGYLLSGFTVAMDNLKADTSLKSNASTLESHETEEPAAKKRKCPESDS
UniProt Q7Z2T5: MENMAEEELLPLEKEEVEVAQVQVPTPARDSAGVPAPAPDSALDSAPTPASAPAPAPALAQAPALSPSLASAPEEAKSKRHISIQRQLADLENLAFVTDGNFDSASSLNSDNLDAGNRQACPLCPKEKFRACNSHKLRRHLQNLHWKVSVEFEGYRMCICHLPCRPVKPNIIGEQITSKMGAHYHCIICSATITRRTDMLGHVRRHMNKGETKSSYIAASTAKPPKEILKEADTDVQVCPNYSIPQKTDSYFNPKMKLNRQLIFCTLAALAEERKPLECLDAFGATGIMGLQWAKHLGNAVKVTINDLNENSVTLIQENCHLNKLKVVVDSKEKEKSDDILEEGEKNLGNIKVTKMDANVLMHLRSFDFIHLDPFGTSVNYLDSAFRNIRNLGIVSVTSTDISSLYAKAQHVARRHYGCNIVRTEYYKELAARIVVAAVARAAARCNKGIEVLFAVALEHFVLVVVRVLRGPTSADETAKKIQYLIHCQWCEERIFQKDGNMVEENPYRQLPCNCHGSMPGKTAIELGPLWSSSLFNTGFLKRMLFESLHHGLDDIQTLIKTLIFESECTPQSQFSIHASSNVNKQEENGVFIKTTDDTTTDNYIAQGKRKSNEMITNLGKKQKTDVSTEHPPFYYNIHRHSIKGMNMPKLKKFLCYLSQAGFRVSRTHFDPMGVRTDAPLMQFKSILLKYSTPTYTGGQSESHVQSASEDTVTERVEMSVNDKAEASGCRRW
UniProt Q8TEL6: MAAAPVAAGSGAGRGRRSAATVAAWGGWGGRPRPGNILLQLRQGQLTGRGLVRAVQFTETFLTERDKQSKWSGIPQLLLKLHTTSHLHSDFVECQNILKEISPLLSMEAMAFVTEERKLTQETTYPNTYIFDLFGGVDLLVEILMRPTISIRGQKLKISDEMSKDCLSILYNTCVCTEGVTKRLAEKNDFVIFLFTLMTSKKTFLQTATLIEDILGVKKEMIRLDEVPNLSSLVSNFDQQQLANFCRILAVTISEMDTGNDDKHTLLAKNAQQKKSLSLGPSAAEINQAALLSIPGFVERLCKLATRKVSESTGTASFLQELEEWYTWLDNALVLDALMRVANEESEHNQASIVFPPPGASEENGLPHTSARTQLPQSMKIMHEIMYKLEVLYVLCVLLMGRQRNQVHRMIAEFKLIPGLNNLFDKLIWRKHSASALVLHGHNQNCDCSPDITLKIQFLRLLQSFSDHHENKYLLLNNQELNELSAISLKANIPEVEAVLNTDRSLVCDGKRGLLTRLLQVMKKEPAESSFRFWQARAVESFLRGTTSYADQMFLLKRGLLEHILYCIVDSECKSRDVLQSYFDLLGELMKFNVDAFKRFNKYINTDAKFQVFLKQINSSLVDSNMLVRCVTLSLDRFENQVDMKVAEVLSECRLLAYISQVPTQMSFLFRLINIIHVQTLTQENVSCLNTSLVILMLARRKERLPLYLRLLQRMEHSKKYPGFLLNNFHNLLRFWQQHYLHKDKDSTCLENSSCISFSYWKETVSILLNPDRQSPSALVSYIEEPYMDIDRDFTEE
UniProt Q8WVT3: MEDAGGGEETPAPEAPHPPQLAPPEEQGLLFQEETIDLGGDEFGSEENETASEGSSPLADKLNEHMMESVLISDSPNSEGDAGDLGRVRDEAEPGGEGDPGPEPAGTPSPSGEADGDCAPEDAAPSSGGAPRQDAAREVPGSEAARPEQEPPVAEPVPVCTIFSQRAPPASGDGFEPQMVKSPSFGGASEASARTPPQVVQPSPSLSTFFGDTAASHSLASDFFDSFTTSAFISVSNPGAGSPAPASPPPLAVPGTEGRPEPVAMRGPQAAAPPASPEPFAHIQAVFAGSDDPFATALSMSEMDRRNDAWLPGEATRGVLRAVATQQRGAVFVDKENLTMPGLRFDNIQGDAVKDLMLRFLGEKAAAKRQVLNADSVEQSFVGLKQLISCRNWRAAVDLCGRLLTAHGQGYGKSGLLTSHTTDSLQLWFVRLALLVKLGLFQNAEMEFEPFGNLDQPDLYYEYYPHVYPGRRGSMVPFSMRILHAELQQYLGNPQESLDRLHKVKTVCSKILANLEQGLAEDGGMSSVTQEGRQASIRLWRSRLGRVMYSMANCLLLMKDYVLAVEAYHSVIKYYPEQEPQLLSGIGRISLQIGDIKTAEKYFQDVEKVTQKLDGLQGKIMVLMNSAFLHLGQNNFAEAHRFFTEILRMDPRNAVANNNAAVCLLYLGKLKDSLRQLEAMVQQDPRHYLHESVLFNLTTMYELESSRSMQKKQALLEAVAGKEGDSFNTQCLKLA
UniProt Q9BQ61: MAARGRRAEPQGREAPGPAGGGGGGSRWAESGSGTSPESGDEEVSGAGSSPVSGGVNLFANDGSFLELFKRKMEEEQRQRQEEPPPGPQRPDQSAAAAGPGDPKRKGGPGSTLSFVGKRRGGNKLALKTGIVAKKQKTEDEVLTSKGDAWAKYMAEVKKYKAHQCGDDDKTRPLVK
UniProt Q8WW01: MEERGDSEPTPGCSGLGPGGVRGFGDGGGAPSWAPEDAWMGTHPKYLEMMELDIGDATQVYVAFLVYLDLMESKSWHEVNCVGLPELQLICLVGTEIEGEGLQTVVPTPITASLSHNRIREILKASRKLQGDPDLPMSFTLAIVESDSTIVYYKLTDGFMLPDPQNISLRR

The list shows a part of the results.

Compound in this experiment: C1CN(CCC1(CC2=CC=C(C=C2)Cl)N)C3=NC=NC4=C3C=CN4
The experiment in a line: log2 fold change, soluble protein after heating vs DMSO (PISA); higher = thermal stabilisation; K562 lysate, 10 uM; active = over 0.2 and 3.5 SD of the protein, either way, in both replicates (recomputed). In outline: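 To prepare the extract, K562 pellets were dounce-homogenised in PBS pH 7.4 with 1 mM MgCl2, giving crude material at 1 mg/mL protein. This was treated with 10 μM compound for 30 min, then heated in aliquots for 3 min over 48°C-58°C before pooling and addition of NP-40 to 0.5% at 4°C. Centrifugation at 21,000xg for 90 min left soluble protein in the supernatant, which TMTpro 16plex LC-MS/MS quantified with equalised channel sums. Results are log-two fold changes in thermal stability compared with solvent controls, from duplicates.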
As to TSSC4 (UniProt Q9Y5U2), the log2 fold change was inactive: -0.013.

As to TRIM44 (UniProt Q96DX7), the log2 fold change was inactive: 0.072.

For TRMT12 (UniProt Q53H54), the log2 fold change is inactive: 0.07.

Turning to TTC9C (UniProt Q8N5M4), the log2 fold change was inactive: 0.012.

TRMT11 (UniProt Q7Z4G4): the log2 fold change was inactive: 0.014.

For TRAPPC6B (UniProt Q86SZ2), the log2 fold change is inactive: 0.019.

As to TRIM38 (UniProt O00635), the log2 fold change was inactive: -0.09.

As to TRMT10A (UniProt Q8TBZ6), the log2 fold change was inactive: 0.044.

TSN (UniProt Q15631): the log2 fold change was inactive: 0.023.

Turning to TRAPPC9 isoform 2 (UniProt Q96Q05), the log2 fold change was inactive: 0.034.

Regarding TTLL12 (UniProt V9GY16), the log2 fold change was inactive: 0.128.

In the case of TTC7B isoform 2 (UniProt Q86TV6), the log2 fold change is inactive: 0.025.

Take TSPO (UniProt P30536): the log2 fold change was inactive: -0.019.

For the target TRAPPC6A isoform 2 (UniProt O75865), the log2 fold change was inactive: 0.095.

With TTC27 (UniProt Q6P3X3), the log2 fold change was inactive: 0.006.

With TSC22D1 (UniProt Q15714), the log2 fold change is inactive: 0.044.

For the target TSFM (UniProt P43897), the log2 fold change is inactive: 0.034.

Take TRNAU1AP (UniProt Q9NX07): the log2 fold change is inactive: 0.015.

On to TRIM4 (UniProt Q9C037), for which the log2 fold change is inactive: -0.007.

In the case of TRMT6 (UniProt Q9UJA5), the log2 fold change was inactive: -0.006.

Regarding TRMT1L (UniProt Q7Z2T5), the log2 fold change is inactive: 0.002.

Consider TRIM11 (UniProt Q96F44), for which the log2 fold change is inactive: 0.002.

Consider TRPC4AP (UniProt Q8TEL6), for which the log2 fold change is inactive: 0.016.

For the target TRAPPC12 (UniProt Q8WVT3), the log2 fold change is inactive: -0.005.

For TSC1 (UniProt Q92574), the log2 fold change was inactive: 0.03.

For TTMP isoform 3 (UniProt Q5BVD1), the log2 fold change is inactive: 0.086.

Take TTI2 (UniProt Q6NXR4): the log2 fold change was inactive: 0.007.

As for TRRAP (UniProt Q9Y4A5), the log2 fold change was inactive: -0.004.

TRIP10 isoform 2 (UniProt Q15642): the log2 fold change was inactive: -0.079.

As for TRIR (UniProt Q9BQ61), the log2 fold change is inactive: 0.04.

For TRUB1 (UniProt Q8WWH5), the log2 fold change was inactive: 0.031.

TRMT61A (UniProt Q96FX7): the log2 fold change was inactive: -0.005.

TRAF3 (UniProt Q13114): the log2 fold change is inactive: 0.029.

With TSEN15 (UniProt Q8WW01), the log2 fold change was inactive: -0.016.

For TRMT112 (UniProt Q9UI30), the log2 fold change was inactive: 0.059.

For TRMU (UniProt O75648), the log2 fold change was inactive: -0.057.

In the case of TSPAN13 (UniProt O95857), the log2 fold change was inactive: -0.053.

As to TRAPPC13 isoform 4 (UniProt A5PLN9), the log2 fold change is inactive: 0.034.

In the case of TRAPPC4 (UniProt Q9Y296), the log2 fold change is inactive: 0.04.

As for TTC12 isoform 2 (UniProt Q9H892), the log2 fold change is inactive: 0.034.
